The source of these data is US20150185222A1 (TORAY INDUSTRIES, published 2015).

Results are given in words; binding and its absence hold for the method and conditions named. A result given as binding can be weak or reduced; the word gives no strength.

The test deals with cat CAPRIN-1 in cat breast cancer tissues (cat). In words: immunohistochemical staining of frozen cat breast cancer tissue sections, 10 µg/ml antibody.

B1: mouse anti-human CAPRIN-1 monoclonal antibody #14 (antibody, V domains shown)
VH: GGGLVQPGGSMRLSCVASGFTFSNSWFNWVRQSPEKGLEWVAEIRLTSDNYAIYYAESVKGRFTISRDDSKSSVYLQMNNLRAEDTGIYYCTRPETARATFAYWGQGTTVTVSS
VL: DVLMTQTPLSLPVSLGDQASISCRSSQSIVHSNGNTYLEWYLQKPGQSPKVLIYKVFNRFSGVPDRFSGSGSGTDFTLKISRVEAEDLGVYYCFQGSHVPRTFGGGTKLNQTG
Turning to B1, the binding entry was “binds”.
